This is an account of results in the supplement of paper PMC10849652.

Sequences of proteins named here, by UniProt entry; tags and fusion partners are left off. A change or cut given only in a name is not applied to a line headed by its entry.
UniProt O60244: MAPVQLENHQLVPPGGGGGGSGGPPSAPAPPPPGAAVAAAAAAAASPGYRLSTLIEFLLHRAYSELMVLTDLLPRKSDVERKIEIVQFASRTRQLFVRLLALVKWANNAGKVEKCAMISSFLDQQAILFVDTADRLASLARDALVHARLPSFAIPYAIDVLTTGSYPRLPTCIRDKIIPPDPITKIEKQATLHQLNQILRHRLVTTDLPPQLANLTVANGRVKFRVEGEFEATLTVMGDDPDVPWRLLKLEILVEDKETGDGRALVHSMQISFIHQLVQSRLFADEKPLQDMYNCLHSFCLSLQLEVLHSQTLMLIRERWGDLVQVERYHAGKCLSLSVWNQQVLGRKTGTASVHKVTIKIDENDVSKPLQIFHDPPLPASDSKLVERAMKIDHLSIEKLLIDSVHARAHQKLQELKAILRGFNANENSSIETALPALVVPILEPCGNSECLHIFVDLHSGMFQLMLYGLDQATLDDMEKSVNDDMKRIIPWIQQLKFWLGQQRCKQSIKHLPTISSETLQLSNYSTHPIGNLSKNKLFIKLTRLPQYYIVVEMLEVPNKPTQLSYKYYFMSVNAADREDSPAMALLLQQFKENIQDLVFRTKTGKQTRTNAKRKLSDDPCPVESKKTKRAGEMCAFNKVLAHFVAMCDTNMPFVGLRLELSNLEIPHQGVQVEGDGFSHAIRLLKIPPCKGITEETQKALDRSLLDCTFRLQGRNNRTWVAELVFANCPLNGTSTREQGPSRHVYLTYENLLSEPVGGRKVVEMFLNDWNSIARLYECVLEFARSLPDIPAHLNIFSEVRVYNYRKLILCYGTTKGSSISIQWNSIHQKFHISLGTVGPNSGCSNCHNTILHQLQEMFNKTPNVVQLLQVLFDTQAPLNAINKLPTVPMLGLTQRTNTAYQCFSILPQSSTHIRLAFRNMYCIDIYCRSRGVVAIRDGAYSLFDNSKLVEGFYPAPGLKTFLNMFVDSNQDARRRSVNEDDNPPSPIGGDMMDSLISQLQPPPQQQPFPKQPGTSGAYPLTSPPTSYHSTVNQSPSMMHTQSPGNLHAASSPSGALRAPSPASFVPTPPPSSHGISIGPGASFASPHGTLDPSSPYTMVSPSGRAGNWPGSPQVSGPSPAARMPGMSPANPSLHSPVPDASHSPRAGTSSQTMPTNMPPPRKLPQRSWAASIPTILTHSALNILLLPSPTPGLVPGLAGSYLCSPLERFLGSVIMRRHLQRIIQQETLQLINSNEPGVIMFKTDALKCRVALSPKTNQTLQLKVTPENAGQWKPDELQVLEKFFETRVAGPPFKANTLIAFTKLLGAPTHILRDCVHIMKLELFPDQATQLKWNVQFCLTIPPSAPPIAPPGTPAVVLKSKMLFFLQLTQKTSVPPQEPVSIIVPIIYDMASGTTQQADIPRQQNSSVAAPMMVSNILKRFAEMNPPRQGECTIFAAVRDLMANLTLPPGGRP
UniProt Q08431: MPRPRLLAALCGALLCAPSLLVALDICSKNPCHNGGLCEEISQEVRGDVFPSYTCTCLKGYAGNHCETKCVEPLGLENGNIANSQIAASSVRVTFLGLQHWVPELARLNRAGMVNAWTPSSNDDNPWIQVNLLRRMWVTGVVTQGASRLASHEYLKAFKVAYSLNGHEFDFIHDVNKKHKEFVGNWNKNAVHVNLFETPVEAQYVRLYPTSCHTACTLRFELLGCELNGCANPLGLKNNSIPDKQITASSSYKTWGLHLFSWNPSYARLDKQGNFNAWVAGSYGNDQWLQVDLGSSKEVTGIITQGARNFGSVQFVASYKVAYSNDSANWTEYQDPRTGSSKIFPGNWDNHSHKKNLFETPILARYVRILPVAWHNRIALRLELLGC
UniProt Q9ULC4: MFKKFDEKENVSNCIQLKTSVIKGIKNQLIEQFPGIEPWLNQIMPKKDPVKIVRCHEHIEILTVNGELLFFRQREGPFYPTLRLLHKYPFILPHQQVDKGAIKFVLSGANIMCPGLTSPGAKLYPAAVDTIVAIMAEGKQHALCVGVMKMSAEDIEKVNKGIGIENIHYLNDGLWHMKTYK
UniProt Q14566: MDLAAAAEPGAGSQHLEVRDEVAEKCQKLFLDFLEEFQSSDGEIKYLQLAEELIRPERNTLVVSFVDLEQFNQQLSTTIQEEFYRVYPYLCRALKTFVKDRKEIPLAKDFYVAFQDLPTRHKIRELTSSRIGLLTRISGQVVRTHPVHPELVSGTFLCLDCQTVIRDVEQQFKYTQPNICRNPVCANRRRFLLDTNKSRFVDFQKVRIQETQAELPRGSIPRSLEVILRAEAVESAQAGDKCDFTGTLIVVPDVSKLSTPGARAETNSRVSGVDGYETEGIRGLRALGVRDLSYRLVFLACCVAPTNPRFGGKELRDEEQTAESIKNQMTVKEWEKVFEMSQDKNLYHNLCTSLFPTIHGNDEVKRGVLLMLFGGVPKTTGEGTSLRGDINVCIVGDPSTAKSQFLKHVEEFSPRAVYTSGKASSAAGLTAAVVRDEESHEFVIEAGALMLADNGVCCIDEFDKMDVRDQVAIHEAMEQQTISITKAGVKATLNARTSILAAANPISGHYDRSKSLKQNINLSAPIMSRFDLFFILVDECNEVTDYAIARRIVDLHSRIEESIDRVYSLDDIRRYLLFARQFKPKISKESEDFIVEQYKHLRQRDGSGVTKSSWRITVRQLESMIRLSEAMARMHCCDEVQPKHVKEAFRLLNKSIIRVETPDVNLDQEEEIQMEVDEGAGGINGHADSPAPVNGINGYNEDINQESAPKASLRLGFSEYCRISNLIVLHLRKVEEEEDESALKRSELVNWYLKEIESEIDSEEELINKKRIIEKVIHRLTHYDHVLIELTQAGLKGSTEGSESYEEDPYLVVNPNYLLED

Some of the results follow.

Compound in this experiment: CC1=C(C2=C(C=C1)C(=O)C3=CC=CC=C3N2CCCN)C
Nature of the experiment: log2 fold change, soluble protein after heating vs DMSO (PISA); higher = thermal stabilisation; K562 cells, 10 uM, 30 min; active = over 0.2 and 3.5 SD of the protein, either way, in both replicates (recomputed). Put shortly:
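K562 cells at 2×10^6 cells/mL were treated for 30 min with 10 μM compound, and aliquots were heated for 3 min over 48°C-58°C before pooling. Extraction used PBS with 0.5% NP-40 at 4°C, and soluble protein was the supernatant after 21,000xg for 90 min, measured by TMTpro 16plex LC-MS/MS with channel sums equalised. Thermal stability values, relative to control samples and from duplicates, are log2 fold changes.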
Regarding MED14 (UniProt O60244), the log2 fold change is inactive: 0.363.

For the target MFGE8 (UniProt Q08431), the log2 fold change is inactive: -0.038.

Regarding MCTS1 isoform 3 (UniProt Q9ULC4), the log2 fold change was inactive: -0.042.

In the case of MCM6 (UniProt Q14566), the log2 fold change was inactive: -0.036.
